These are yes or no findings as the source states them, for the method shown. Binding seen in cells or lysates may run through a third protein. Some results given as binding are weak or reduced against the parent protein; the word gives no strength. Where a sequence is shown, tags or fusion partners need not be part of it.
Target: T1, EGFP-tagged CSNK1A1 wild type (casein kinase 1 isoform alpha) (human) (UniProt P48729)
T1 sequence: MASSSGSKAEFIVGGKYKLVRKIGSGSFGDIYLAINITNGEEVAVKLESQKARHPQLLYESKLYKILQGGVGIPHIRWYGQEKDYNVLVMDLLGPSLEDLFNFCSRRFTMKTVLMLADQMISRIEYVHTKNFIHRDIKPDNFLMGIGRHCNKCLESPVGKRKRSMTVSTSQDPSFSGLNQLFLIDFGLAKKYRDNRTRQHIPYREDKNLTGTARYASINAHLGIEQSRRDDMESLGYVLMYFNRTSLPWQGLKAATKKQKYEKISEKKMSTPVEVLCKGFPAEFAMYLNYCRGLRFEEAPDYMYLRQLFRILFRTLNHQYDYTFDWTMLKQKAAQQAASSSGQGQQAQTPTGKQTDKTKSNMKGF
Assay: co-IP; HEK-293T co-transfected with EGFP-tagged CSNK1A1 and Flag-CTNNB1 plasmids for 48 h; NP-40 lysis; 500 μg lysate immunoprecipitated with 5 μg anti-EGFP antibody overnight at 4°C, protein A/G agarose 4 h, five RIPA washes; Western blot

Protein sequences, listed by entry. Tags and fused reporters are not part of them.
UniProt P35222: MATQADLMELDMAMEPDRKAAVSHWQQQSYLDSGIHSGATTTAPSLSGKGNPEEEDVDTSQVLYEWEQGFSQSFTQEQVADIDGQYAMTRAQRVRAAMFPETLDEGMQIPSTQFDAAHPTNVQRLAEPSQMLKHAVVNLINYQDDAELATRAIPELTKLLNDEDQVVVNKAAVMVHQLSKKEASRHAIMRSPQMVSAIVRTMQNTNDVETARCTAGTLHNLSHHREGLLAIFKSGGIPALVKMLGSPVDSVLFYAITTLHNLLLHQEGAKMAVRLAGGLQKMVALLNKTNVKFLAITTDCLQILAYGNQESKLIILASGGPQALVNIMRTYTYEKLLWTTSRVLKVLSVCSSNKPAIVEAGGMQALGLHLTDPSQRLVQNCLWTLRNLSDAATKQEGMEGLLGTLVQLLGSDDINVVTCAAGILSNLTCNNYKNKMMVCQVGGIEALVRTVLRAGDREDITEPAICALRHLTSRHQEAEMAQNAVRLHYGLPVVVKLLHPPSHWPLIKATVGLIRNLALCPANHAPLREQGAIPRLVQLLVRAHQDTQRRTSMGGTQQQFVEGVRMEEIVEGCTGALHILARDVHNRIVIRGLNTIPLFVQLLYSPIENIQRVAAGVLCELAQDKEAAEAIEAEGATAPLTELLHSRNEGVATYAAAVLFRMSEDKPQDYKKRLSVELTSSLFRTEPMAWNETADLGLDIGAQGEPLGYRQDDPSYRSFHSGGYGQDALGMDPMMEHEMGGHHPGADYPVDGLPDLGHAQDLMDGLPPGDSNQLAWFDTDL

With “Flag-CTNNB1 (β-catenin) (from UniProt P35222 1-781)” the binding was “binds”.

— paper PMC12056308
